Data taken from publication PMC6693564, “RGG-motif self-association regulates eIF4G-binding translation repressor protein Scd6” (RNA Biology, 2019).
No constants are given. Whether binding was seen depends on the method and setting. For some of these results: Binding seen in cells or lysates may run through a third protein. Some entries that bind do so weakly or less than the wild type. Where a sequence is shown, tags or fusion partners need not be part of it.

Columns and labels:
[1] = biological target: T1, GSTScd6 (galactose inducible, in yeast) (yeast) (UniProt P45978); experiment: pull-down; Glutathione Sepharose-4B pull-down of galactose-induced GST fusion from yeast lysate (200 µg protein) of cells expressing Scd6TAP, 2 h at 4°C, Buffer A (50mM HEPES pH7, 100mM NaCl, 1% Triton-X100, 10 mg/ml BSA), RNase A 0.25 mg/ml; also with Micrococcal nuclease or both; wild type and hmt1Δ cells; blot with PAP antibody and anti-GST
T1 sequence: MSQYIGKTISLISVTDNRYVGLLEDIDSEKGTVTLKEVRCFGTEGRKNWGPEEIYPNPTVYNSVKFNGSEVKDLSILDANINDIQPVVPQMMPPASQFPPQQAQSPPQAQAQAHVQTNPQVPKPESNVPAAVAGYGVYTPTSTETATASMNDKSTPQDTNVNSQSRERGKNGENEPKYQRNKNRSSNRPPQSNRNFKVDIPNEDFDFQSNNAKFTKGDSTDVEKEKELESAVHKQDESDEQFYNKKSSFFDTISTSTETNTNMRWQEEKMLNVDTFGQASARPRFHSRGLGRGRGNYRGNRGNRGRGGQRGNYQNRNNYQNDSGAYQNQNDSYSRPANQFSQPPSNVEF

[2] = biological target: T2, Sbp1GST (chromosomally encoded) (yeast) (UniProt P10080); experiment: pull-down; Glutathione pull-down of chromosomally encoded Sbp1GST from yeast lysate of cells expressing galactose-inducible Sbp1 or Sbp1∆RGG; wild type and ∆HMT1 cells; blot with anti-GST and PAP antibody
T2 sequence: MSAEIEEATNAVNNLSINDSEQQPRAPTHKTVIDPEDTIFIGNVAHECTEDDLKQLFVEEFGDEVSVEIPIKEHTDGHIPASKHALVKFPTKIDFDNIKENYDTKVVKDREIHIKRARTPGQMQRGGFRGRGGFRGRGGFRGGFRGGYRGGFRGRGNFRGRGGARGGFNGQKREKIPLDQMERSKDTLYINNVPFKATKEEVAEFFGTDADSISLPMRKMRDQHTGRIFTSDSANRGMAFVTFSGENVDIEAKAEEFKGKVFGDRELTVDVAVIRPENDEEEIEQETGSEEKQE

[3] = biological target: T3, HisScd6FLAG (recombinant) (yeast) (UniProt P45978); experiment: pull-down; FLAG-agarose pull-down of Scd6FLAG (450nM) with eIF4G1GST (450nM) and increasing GSTScd6 (none, 1X-450nM, 3X-1350nM); 50mM Tris-HCl pH7.4, 150mM NaCl, 1mM EDTA, 1% Triton-X100, 0.25mg/ml RNase A, 10mg/ml BSA; blots with anti-eIF4G1, anti-GST, anti-FLAG; both purified
T3 sequence: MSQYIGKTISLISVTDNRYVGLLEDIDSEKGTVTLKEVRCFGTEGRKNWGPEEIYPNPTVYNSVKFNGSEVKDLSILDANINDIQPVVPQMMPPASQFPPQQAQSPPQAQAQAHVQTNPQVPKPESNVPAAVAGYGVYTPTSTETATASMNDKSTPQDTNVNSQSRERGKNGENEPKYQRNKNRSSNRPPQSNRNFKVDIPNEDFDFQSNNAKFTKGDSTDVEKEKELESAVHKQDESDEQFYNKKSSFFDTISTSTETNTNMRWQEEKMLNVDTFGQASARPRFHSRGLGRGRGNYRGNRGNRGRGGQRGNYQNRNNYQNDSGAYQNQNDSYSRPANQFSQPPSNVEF

[4] = biological target: T4, eIF4G1 (recombinant, native PAGE of Figure 4c) (yeast) (UniProt P39935); experiment: native gel or EMSA; 100nM, 200nM and 400nM Scd6FLAG mixed with 100nM eIF4G1 in Buffer C, incubated overnight at 4°C, 6% native PAGE, Coomassie staining; both purified
T4 sequence: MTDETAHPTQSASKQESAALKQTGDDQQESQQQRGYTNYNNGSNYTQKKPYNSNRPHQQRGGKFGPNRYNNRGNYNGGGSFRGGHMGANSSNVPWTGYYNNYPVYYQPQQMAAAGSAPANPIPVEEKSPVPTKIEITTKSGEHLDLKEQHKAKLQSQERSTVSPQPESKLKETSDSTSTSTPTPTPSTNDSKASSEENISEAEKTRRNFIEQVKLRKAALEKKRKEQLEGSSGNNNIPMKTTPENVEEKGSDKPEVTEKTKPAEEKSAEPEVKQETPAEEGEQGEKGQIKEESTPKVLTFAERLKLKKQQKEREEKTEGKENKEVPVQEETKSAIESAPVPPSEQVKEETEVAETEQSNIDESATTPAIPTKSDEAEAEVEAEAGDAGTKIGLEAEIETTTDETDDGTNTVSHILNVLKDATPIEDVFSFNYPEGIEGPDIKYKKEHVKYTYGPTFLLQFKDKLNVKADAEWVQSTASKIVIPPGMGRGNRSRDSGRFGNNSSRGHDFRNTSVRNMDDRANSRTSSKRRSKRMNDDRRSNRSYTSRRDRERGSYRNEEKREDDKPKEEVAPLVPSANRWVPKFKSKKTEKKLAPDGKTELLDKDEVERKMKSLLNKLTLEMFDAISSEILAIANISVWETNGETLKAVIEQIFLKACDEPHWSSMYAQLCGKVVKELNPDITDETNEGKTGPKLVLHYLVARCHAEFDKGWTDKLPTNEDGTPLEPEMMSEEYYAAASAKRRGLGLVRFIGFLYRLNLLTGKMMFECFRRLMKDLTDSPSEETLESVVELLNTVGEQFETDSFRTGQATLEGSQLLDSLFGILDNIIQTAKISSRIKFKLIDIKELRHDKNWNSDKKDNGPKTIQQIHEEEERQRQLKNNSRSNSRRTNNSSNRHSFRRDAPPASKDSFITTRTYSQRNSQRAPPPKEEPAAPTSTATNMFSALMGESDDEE

B1: Scd6TAP (chromosomally tagged) (protein, UniProt P45978 1-349)
chain: MSQYIGKTISLISVTDNRYVGLLEDIDSEKGTVTLKEVRCFGTEGRKNWGPEEIYPNPTVYNSVKFNGSEVKDLSILDANINDIQPVVPQMMPPASQFPPQQAQSPPQAQAQAHVQTNPQVPKPESNVPAAVAGYGVYTPTSTETATASMNDKSTPQDTNVNSQSRERGKNGENEPKYQRNKNRSSNRPPQSNRNFKVDIPNEDFDFQSNNAKFTKGDSTDVEKEKELESAVHKQDESDEQFYNKKSSFFDTISTSTETNTNMRWQEEKMLNVDTFGQASARPRFHSRGLGRGRGNYRGNRGNRGRGGQRGNYQNRNNYQNDSGAYQNQNDSYSRPANQFSQPPSNVEF
B1 was tested, and the binding [1] was “binds”.

B2: HisSbp1GFP (recombinant) (natural protein, yeast, UniProt P10080 1-294, looked up)
chain: MSAEIEEATNAVNNLSINDSEQQPRAPTHKTVIDPEDTIFIGNVAHECTEDDLKQLFVEEFGDEVSVEIPIKEHTDGHIPASKHALVKFPTKIDFDNIKENYDTKVVKDREIHIKRARTPGQMQRGGFRGRGGFRGRGGFRGGFRGGYRGGFRGRGNFRGRGGARGGFNGQKREKIPLDQMERSKDTLYINNVPFKATKEEVAEFFGTDADSISLPMRKMRDQHTGRIFTSDSANRGMAFVTFSGENVDIEAKAEEFKGKVFGDRELTVDVAVIRPENDEEEIEQETGSEEKQE
notes: Sbp1, yeast, wild type; source: E. coli XL1-Blue, purified (Ni-NTA)
B2 was tested, and the binding [2] was “binds”.

B3: eIF4G1GST (recombinant) (protein, UniProt P39935 1-952)
chain: MTDETAHPTQSASKQESAALKQTGDDQQESQQQRGYTNYNNGSNYTQKKPYNSNRPHQQRGGKFGPNRYNNRGNYNGGGSFRGGHMGANSSNVPWTGYYNNYPVYYQPQQMAAAGSAPANPIPVEEKSPVPTKIEITTKSGEHLDLKEQHKAKLQSQERSTVSPQPESKLKETSDSTSTSTPTPTPSTNDSKASSEENISEAEKTRRNFIEQVKLRKAALEKKRKEQLEGSSGNNNIPMKTTPENVEEKGSDKPEVTEKTKPAEEKSAEPEVKQETPAEEGEQGEKGQIKEESTPKVLTFAERLKLKKQQKEREEKTEGKENKEVPVQEETKSAIESAPVPPSEQVKEETEVAETEQSNIDESATTPAIPTKSDEAEAEVEAEAGDAGTKIGLEAEIETTTDETDDGTNTVSHILNVLKDATPIEDVFSFNYPEGIEGPDIKYKKEHVKYTYGPTFLLQFKDKLNVKADAEWVQSTASKIVIPPGMGRGNRSRDSGRFGNNSSRGHDFRNTSVRNMDDRANSRTSSKRRSKRMNDDRRSNRSYTSRRDRERGSYRNEEKREDDKPKEEVAPLVPSANRWVPKFKSKKTEKKLAPDGKTELLDKDEVERKMKSLLNKLTLEMFDAISSEILAIANISVWETNGETLKAVIEQIFLKACDEPHWSSMYAQLCGKVVKELNPDITDETNEGKTGPKLVLHYLVARCHAEFDKGWTDKLPTNEDGTPLEPEMMSEEYYAAASAKRRGLGLVRFIGFLYRLNLLTGKMMFECFRRLMKDLTDSPSEETLESVVELLNTVGEQFETDSFRTGQATLEGSQLLDSLFGILDNIIQTAKISSRIKFKLIDIKELRHDKNWNSDKKDNGPKTIQQIHEEEERQRQLKNNSRSNSRRTNNSSNRHSFRRDAPPASKDSFITTRTYSQRNSQRAPPPKEEPAAPTSTATNMFSALMGESDDEE
B3 was tested, and the binding [3] was “binds”.

B4: HisScd6FLAG (recombinant) (natural protein, yeast, UniProt P45978 1-349, looked up)
chain: MSQYIGKTISLISVTDNRYVGLLEDIDSEKGTVTLKEVRCFGTEGRKNWGPEEIYPNPTVYNSVKFNGSEVKDLSILDANINDIQPVVPQMMPPASQFPPQQAQSPPQAQAQAHVQTNPQVPKPESNVPAAVAGYGVYTPTSTETATASMNDKSTPQDTNVNSQSRERGKNGENEPKYQRNKNRSSNRPPQSNRNFKVDIPNEDFDFQSNNAKFTKGDSTDVEKEKELESAVHKQDESDEQFYNKKSSFFDTISTSTETNTNMRWQEEKMLNVDTFGQASARPRFHSRGLGRGRGNYRGNRGNRGRGGQRGNYQNRNNYQNDSGAYQNQNDSYSRPANQFSQPPSNVEF
notes: Scd6, yeast; predicted molecular mass of the purified protein about 41.5 kDa; also called purified Scd6; source: E. coli BL21, purified (HisTrap HP, HiTrap Heparin HP)
For B4, the binding [4] was “binds”.
